# Data from PubChem BioAssay AID662 (National Center for Advancing Translational Sciences (NCATS), 2007).
# The other results are listed elsewhere or left out. The main result of the screen is listed elsewhere. These columns were measured beside it and carry no call. Compounds called inactive in the main read-out are mostly missing here. Potencies come from curve fits of mixed quality, noted in brackets.
# Assay: Cell signaling CRE-BLA (Fsk stim)
# Conditions: CHO CRE-bla reporter (cAMP response element driving beta-lactamase), forskolin EC10, beta-lactamase ratio; measured here: 460 nm blue channel
# Method in brief: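 AC50 values, positive or negative, reflect shifts in EC10 NKH 477-induced CRE-bla reporter activity in CHO cells. Incubation lasted 3 h at 37 °C before CCF4 substrate (2 h, room temperature) and ratiometric 460/530 nm reading.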
row,Structure (SMILES),AC50
1,CC(C)C(OC(=O)CN1C(=O)COc2ccccc21)C(=O)NC1CCCC1 (stereo unspecified),"25.1 µM [falling, single point]"
2,COc1ccc(C(=O)CC(=O)O)c2c1C=CC(C)(C)O2,"0.398 µM [falling, full curve]"
3,CC(=O)N1CCc2cc(S(=O)(=O)NCCCN3CCN(Cc4ccccc4)CC3)ccc21,"7.94 µM [rising, single point]"
4,CCN(Cc1ccccc1)C(=O)Cn1c(=O)n(CC(=O)NCc2ccco2)c(=O)c2sccc21,"0.316 µM [falling, partial curve, poor fit]"
5,CCN(Cc1nc2ccccc2c(=O)[nH]1)Cc1cc(=O)oc2cc(C)c(C)cc12,"12.6 µM [rising, partial curve]"
6,CCCCS(=O)(=O)NC1=NCN(CCO)CN1,"0.0794 µM [falling, full curve, poor fit]"
7,CCCS(=O)(=O)N1CCC(C(=O)N2CCc3ccccc3C2)CC1,"0.00794 µM [falling, full curve, poor fit]"
8,C/C=C/CSc1nc2c(c(=O)[nH]c(=O)n2C)n1Cc1ccc(C)cc1,"10 µM [rising, partial curve]"
9,O=c1c(=O)n(O)c2ccccc2n1O,"2.51 µM [falling, partial curve]"
10,Cc1sc2ncnc(SCC#N)c2c1C,"10 µM [rising, partial curve]"
11,COc1ccc(-c2cc(-c3ccccc3)nc(N3CCCC3)n2)cc1OC,"3.16 µM [rising, partial curve]"
12,COc1cccc(Nc2ncc3nc(C)c(=O)n(-c4ccccc4)c3n2)c1,"12.6 µM [rising, single point]"
13,Cc1cccc(-c2nc3ccccc3c3nncn23)c1,"15.8 µM [rising, partial curve]"
14,COC(=O)CN(c1ccc(C)cc1)S(=O)(=O)c1ccc2c(c1)n(C)c(=O)c(=O)n2C,"0.126 µM [falling, full curve]"
15,CN(Cc1ccccc1)C(=O)CCC(=O)N(C)Cc1ccccc1,"0.794 µM [rising, partial curve]"
16,CC(C)c1nc(SCC(=O)Nc2ccc3c(c2)OCCO3)c2c(=O)n(C)c(=O)n(C)c2n1,"2 µM [rising, partial curve]"
17,Cn1c(=O)c2c(-c3ccccc3)n(-n3cnnc3)cc2n(C)c1=O,"25.1 µM [falling, single point]"
18,CC1S/C(=C(\C#N)C(N)=O)N(c2ccc(F)cc2)C1=O (stereo unspecified),"5.01 µM [falling, single point]"
19,COCCn1c(=O)c(-c2cccc(C#N)c2)nc2cnc(Oc3cccc(Cl)c3)nc21,"15.8 µM [rising, single point]"
20,c1ccc(Nc2nc(-c3cccs3)cs2)nc1,"12.6 µM [falling, single point]"
21,Cc1ccc(-c2nn3c(C)nnc3s2)cc1NC(=O)c1ccc(Br)o1,"12.6 µM [rising, partial curve]"
22,Brc1ccccc1-c1nc(-c2ccccc2)no1,"0.316 µM [rising, full curve]"

row,Structure (SMILES),AC50
1,OCC1N=C(c2ccccn2)OC1c1ccccc1 (stereo unspecified),"0.126 µM [falling, full curve]"
2,COc1cccc(Cn2c(=O)c(-c3ccccc3)nc3cnc(N(C)C)nc32)c1,"1.58 µM [rising, full curve]"
3,O=C(CSc1nc2ccccc2[nH]1)Nc1cc(C(F)(F)F)ccc1N1CCOCC1,"12.6 µM [rising, partial curve]"
4,COc1ccc(-c2nc3cnc(N4CCNCC4)nc3n(-c3ccccc3)c2=O)cc1,"3.98 µM [rising, full curve]"
5,CC(=O)NS(=O)(=O)c1ccc(NC(=O)c2ccccc2F)cc1,"0.00398 µM [falling, full curve, poor fit]"
6,O=C(Oc1ccc2c3c(c(=O)oc2c1)CCCC3)c1ccco1,"15.8 µM [rising, partial curve]"
7,C[C@@H](NC(=O)/C(C#N)=C/c1ccc(O)c(O)c1)c1ccccc1,"25.1 µM [rising, partial curve]"
8,Clc1ccc2nc(NC3=NCN(CCN4CCOCC4)CN3)nc(-c3ccccc3)c2c1,"25.1 µM [rising, single point]"
9,COc1cc(-c2nnc(SCC(=O)c3cc(C)n(CC4CCCO4)c3C)o2)cc(OC)c1OC (stereo unspecified),"3.98 µM [rising, partial curve]"
10,CCOc1cc(C2NC(=O)NC(C)=C2C(=O)OCc2ccccc2)ccc1O (stereo unspecified),"12.6 µM [rising, single point]"
11,CNCC[C@H](Oc1ccccc1OC)c1ccccc1,"25.1 µM [falling, single point]"
12,OCCCN1c2ccccc2Nc2nnc(-c3ccccc3)cc21,"0.00794 µM [rising, full curve]"
13,CCOC(=O)Nc1nnc(-c2ccc(OC)c(OC)c2)s1,"10 µM [rising, single point]"
14,COC(=O)CSc1nnc(-c2cccc(NC(=O)c3ccc(C)cc3)c2)n1C,"0.00794 µM [rising, full curve, poor fit]"
15,CC(=O)NC(Cc1ccccc1)C(=O)NC1CCN(C(=O)c2cnccn2)CC1 (stereo unspecified),"0.0126 µM [falling, full curve, poor fit]"
16,Cc1ccccc1Cn1ccc(NC(=O)c2cc3nc(-c4ccco4)cc(C(F)(F)F)n3n2)n1,"3.98 µM [rising, partial curve]"
17,COc1cccc(C2Nc3ccccc3C(=O)N2O)c1O (stereo unspecified),"15.8 µM [falling, partial curve]"
18,CC(C)(C)n1nnnc1C(c1cccnc1)N1CCN(C2CCCCC2)CC1 (stereo unspecified),"0.00794 µM [falling, full curve, poor fit]"
19,C=CCOC(=O)C1=C(C)NC(SCC(=O)NC(=O)OCC)=C(C#N)C1c1cccnc1 (stereo unspecified),"10 µM [rising, partial curve]"
20,COc1cc(C(=O)N2CCC(NC(=O)C(Cc3ccc(C)cc3)NC(C)=O)CC2)cc(OC)c1OC (stereo unspecified),"0.126 µM [falling, single point]"
21,COc1ccc(O)c(C(=O)c2cc(C#N)c(=O)n(-c3c(C)n(C)n(-c4ccccc4)c3=O)c2)c1,"5.01 µM [falling, single point]"
22,CSc1nc(N(CCO)CCO)c2sc3nc(-c4ccco4)c4c(c3c2n1)CCC4,"12.6 µM [rising, partial curve]"

# 3 entries out of the list, ordered by heavy-atom count, low to high.
row,Structure (SMILES),AC50
11,CNCC[C@H](Oc1ccccc1OC)c1ccccc1,"25.1 µM [falling, single point]"
18,CC(C)(C)n1nnnc1C(c1cccnc1)N1CCN(C2CCCCC2)CC1 (stereo unspecified),"0.00794 µM [falling, full curve, poor fit]"
8,Clc1ccc2nc(NC3=NCN(CCN4CCOCC4)CN3)nc(-c3ccccc3)c2c1,"25.1 µM [rising, single point]"

# (continued)

row,Structure (SMILES),AC50
1,CC(C)(C)c1nnc2sc(SCC(=O)N3CCCc4ccccc43)nn2c1=O,"0.794 µM [falling, full curve]"
2,COc1cccc(/C=N/n2c(C)c3c(C)nnc(C)c3c2C)c1O,"25.1 µM [falling, single point]"
3,COC(=O)c1c(NC(=O)c2ccc(S(=O)(=O)N3CCOCC3)cc2)sc2c1CCN(C)C2,"10 µM [rising, partial curve]"
4,CCCCn1c(=NC(=O)c2cccnc2)c(C(=O)OCC)cc2c(=O)n3ccccc3nc21,"12.6 µM [rising, partial curve]"
5,COc1ccccc1CC(NC(C)=O)C(=O)NC1CCN(c2nnnn2-c2ccccc2)CC1 (stereo unspecified),"0.1 µM [falling, single point]"
6,CC(=O)Nc1nc(C=C(Cl)Cl)cs1,"12.6 µM [falling, partial curve, poor fit]"
7,C=CCn1cc(C(=O)NCCCOC)c(=O)c2cc(S(=O)(=O)N(CC)CC)ccc21,"12.6 µM [rising, single point]"
8,COc1ccccc1N1CCN(CC(O)c2ccc3cc[nH]c3c2)CC1 (stereo unspecified),"10 µM [falling, partial curve]"
9,COc1cc(C2NC(=O)N(C)C3=C2C(=O)CCC3)cc(OC)c1OC (stereo unspecified),"3.98 µM [rising, single point]"
10,O=C(CN1C(=O)CCC1=O)Nc1ccc(S(=O)(=O)N2CCOCC2)cc1,"0.501 µM [falling, full curve, poor fit]"
11,Cc1nc(SCC(=O)NCc2ccco2)c2oc3ccccc3c2n1,"7.94 µM [rising, partial curve]"
12,Cc1c[nH]c(=O)n(CCCN2CCN(c3ccccc3OCC(F)(F)F)CC2)c1=O,"0.0251 µM [rising, full curve, poor fit]"
13,Cc1noc(C)c1-c1nc(NC2CCNCC2)c2ccccc2n1,"10 µM [rising, partial curve]"
14,O=C1CCc2cc(OCCCCc3nnnn3C3CCCCC3)ccc2N1,"0.1 µM [rising, full curve, poor fit]"
15,Cc1ccc(C)c(NC(=O)CC(NCCCN2CCOCC2)C(=O)O)c1 (stereo unspecified),"2 µM [rising, single point]"
16,CCOc1cc(C2c3c(n[nH]c3C)C(=O)N2c2ccc(Br)cc2)ccc1O (stereo unspecified),"7.94 µM [falling, partial curve, poor fit]"
17,O=C(Nc1ccc(S(=O)(=O)NC2CCCC2)cc1)c1cnccn1,"10 µM [rising, partial curve]"
18,CCOC(=O)c1c(N)nn(C(C)=O)c1-c1ccccc1,"12.6 µM [rising, partial curve]"
19,Cc1nc2nc(-c3ccco3)nn2c(C)c1Cl,"12.6 µM [rising, single point]"
20,CCN1CCN(c2c(Cl)cccc2NC(=O)c2ccc(Br)o2)CC1,"0.631 µM [rising, full curve, poor fit]"
21,CCNc1ncc2nc(C)c(=O)n(C[C@H]3CCCO3)c2n1,"12.6 µM [rising, partial curve]"
22,COc1cccc(-c2nn(C)c3sc(C(=O)N4CCN(c5ccccn5)CC4)cc23)c1,"3.16 µM [rising, partial curve]"
